In PMC4509781:
Results are given in words; binding and its absence hold for the method and conditions named.

Amino acid sequences for entries named in this document (tags omitted). Residues count along the entry.
UniProt Q12824, residues 1-115: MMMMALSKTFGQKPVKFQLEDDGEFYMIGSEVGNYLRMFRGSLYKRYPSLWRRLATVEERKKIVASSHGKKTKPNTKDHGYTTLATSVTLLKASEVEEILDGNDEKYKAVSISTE

Target: INI1 N-terminal winged helix domain (residues 1-115 of human INI1) (human) (UniProt Q12824)
Test: SEC; gel filtration on a HiLoad 26/60 Superdex 75 column during purification; elution volume compared with that of a monomer; both purified

In the case of “INI1 N-terminal winged helix domain (residues 1-115 of human INI1) (from UniProt Q12824 1-115) (domain or fragment)”, the binding is reported as “no binding”.
